Results from article PMC8157044.
No constants are given. Whether binding was seen depends on the method and setting. In cells and extracts the contact can be indirect.

The chains behind the UniProt entries cited, without tags or fusion partners. Residues count along the entry.
UniProt Q15075, residues 36-218: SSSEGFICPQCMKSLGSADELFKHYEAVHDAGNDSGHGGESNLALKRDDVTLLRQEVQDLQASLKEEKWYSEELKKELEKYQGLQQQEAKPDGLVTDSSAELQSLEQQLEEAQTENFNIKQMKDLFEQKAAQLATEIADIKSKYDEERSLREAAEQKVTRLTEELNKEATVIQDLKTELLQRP
UniProt Q8N122: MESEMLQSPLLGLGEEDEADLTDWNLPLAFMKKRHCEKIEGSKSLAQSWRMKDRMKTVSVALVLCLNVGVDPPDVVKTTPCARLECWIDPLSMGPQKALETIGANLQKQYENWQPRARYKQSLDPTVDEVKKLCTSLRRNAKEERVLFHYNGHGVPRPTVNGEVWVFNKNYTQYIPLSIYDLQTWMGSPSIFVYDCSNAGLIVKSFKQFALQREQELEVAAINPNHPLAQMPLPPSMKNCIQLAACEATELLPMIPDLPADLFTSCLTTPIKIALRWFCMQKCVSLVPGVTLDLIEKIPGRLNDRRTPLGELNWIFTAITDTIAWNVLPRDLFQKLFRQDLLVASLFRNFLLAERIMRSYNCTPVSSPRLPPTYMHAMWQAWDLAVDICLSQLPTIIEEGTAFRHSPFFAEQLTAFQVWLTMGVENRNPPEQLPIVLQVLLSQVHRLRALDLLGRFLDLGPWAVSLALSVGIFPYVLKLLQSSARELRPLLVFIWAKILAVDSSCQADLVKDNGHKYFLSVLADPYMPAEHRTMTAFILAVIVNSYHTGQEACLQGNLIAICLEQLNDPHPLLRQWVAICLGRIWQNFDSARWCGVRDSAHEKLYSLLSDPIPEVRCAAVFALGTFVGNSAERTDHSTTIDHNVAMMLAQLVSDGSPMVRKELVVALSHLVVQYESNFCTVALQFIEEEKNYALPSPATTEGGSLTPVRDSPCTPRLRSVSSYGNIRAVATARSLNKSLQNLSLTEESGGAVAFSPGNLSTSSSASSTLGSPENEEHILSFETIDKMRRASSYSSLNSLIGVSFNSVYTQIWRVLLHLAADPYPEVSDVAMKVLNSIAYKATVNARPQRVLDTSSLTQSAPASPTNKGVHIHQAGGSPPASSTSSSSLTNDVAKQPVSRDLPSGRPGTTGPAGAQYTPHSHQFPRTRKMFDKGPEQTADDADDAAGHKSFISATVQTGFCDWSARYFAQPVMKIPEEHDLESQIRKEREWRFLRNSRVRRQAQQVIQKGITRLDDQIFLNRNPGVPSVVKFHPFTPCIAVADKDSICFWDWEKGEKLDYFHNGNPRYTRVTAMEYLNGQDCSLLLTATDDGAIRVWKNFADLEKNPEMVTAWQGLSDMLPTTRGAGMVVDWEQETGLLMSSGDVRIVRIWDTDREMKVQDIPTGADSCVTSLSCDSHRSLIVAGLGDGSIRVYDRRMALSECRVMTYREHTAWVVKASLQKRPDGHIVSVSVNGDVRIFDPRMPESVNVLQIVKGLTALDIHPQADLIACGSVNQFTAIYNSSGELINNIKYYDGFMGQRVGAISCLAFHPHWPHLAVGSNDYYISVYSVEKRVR

Molecular target: GST-EEA1-Rab5-GTP-binding domain (human) (UniProt Q15075)
Assay: pull-down; GST-EEA1-Rab5BD (4 μg) added to 800 μL postnuclear supernatant of U87MG cells (serum-starved, or PDGF-BB 50 ng/mL for 5 min; lysed by needle passage in 250 mM sucrose, 3 mM imidazole pH 7.4, 0.5 mM EDTA, no detergent), overnight at 4 °C, then Glutathione-Sepharose-4B beads 2 h at 4 °C, five washes, immunoblot; meant to isolate Rab5-GTP early endosomes; only the target purified

With “regulatory protein associated with mTOR (Raptor) (from UniProt Q8N122 1-1335)” the binding was “no binding (tested: 4 μg GST-EEA1-RBD in 800 μL PNS)”.
